# The other results are listed elsewhere or left out.
# By UniProt entry, the sequences of proteins in these tests, tags left out. Where a name states a change or a piece, a line headed by the entry shows the natural chain unless it says otherwise.
# UniProt Q9NQW7: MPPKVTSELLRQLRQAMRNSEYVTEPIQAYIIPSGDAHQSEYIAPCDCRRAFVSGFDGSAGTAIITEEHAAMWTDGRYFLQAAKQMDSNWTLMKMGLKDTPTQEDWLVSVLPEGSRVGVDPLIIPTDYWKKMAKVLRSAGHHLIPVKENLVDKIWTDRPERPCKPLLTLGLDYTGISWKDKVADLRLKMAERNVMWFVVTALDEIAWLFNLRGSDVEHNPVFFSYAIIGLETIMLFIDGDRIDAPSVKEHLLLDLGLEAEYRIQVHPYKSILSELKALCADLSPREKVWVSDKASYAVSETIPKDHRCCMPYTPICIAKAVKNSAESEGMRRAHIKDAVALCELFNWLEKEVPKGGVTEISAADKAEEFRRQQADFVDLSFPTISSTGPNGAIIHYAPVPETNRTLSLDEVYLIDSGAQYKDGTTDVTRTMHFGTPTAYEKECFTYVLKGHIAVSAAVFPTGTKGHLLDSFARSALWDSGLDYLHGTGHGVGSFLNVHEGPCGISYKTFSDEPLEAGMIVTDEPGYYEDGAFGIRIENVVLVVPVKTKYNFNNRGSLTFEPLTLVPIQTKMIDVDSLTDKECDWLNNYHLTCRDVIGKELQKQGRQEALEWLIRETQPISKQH
# UniProt Q8TCF1: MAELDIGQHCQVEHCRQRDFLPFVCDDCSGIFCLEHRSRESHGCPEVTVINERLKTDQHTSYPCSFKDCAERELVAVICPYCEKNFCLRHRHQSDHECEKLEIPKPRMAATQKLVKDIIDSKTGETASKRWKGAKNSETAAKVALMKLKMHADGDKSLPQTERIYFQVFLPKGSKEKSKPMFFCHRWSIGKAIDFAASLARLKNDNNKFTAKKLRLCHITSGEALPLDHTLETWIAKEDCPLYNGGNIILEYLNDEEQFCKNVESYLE
# UniProt Q7Z2W4: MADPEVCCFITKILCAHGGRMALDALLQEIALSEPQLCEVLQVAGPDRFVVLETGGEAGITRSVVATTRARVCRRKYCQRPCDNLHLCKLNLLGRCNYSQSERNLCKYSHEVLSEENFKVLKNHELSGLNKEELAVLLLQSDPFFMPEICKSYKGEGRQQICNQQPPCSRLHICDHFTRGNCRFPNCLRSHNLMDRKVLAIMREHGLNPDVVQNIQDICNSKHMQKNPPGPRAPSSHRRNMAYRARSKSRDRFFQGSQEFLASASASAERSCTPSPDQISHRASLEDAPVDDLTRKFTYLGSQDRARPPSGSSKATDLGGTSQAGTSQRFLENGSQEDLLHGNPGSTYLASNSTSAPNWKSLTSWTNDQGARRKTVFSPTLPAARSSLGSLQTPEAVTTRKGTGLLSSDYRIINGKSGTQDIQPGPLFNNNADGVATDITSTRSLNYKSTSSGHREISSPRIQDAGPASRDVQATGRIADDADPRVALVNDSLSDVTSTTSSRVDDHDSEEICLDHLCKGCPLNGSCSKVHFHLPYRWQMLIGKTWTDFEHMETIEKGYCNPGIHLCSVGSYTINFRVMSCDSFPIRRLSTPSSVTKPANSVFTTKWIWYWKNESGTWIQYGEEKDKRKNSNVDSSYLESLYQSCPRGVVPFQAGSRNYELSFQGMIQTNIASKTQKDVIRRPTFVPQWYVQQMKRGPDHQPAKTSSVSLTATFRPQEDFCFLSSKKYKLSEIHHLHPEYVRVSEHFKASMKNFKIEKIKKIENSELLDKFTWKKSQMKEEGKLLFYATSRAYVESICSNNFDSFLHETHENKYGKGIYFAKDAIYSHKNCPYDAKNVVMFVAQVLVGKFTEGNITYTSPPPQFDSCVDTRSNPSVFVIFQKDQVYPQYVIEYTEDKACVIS
# UniProt Q9UIA9: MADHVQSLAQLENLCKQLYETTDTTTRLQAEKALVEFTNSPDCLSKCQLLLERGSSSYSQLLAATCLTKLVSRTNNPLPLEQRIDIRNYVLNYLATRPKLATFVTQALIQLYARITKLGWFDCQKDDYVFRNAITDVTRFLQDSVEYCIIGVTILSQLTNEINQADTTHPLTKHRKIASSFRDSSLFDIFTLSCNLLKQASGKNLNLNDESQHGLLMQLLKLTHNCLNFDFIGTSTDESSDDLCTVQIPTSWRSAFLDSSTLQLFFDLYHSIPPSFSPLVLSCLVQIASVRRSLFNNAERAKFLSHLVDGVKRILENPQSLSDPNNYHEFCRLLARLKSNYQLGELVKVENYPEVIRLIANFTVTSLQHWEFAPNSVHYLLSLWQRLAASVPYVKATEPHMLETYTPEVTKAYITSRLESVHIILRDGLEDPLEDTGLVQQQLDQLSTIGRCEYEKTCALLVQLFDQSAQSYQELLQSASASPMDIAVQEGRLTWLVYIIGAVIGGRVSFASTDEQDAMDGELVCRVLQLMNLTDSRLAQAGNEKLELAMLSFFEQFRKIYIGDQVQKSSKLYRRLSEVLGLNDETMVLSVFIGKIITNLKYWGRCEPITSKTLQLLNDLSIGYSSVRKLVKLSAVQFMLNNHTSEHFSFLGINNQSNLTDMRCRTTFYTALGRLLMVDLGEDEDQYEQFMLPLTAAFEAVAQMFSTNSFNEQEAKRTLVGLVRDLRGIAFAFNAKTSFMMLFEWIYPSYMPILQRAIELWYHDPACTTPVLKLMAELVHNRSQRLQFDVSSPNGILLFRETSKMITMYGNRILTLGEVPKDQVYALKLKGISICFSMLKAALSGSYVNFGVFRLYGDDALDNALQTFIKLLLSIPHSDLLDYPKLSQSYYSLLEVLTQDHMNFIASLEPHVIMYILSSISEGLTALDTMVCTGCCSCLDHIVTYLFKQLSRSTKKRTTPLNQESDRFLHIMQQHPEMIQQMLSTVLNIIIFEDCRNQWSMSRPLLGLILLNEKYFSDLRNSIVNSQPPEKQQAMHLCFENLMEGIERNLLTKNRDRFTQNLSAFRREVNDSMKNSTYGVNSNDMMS
# UniProt Q8IWR0: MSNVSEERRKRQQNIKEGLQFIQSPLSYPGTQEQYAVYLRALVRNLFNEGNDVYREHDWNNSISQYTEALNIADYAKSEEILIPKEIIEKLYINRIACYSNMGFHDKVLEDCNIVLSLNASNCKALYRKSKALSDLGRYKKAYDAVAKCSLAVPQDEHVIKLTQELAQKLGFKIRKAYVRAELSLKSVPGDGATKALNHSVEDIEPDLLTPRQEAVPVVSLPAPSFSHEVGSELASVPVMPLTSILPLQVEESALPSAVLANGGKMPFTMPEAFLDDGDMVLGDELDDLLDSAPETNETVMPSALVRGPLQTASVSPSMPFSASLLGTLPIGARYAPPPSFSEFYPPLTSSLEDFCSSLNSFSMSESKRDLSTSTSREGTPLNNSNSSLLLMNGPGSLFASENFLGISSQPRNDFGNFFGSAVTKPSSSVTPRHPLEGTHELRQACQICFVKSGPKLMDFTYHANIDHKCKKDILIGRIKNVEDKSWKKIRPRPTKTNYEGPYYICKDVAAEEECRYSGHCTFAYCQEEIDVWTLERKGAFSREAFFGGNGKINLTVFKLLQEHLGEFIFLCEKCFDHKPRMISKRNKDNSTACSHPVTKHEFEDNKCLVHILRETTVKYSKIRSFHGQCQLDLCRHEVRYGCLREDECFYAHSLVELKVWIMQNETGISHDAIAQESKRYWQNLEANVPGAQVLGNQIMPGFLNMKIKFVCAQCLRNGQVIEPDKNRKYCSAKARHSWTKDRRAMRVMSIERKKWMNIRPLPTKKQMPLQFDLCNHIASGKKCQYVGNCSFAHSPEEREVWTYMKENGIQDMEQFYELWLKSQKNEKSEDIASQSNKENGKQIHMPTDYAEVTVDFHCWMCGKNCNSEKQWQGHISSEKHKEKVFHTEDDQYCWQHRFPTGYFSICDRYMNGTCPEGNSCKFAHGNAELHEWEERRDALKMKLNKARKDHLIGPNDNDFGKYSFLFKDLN
# UniProt P18887, whole entry, looked up: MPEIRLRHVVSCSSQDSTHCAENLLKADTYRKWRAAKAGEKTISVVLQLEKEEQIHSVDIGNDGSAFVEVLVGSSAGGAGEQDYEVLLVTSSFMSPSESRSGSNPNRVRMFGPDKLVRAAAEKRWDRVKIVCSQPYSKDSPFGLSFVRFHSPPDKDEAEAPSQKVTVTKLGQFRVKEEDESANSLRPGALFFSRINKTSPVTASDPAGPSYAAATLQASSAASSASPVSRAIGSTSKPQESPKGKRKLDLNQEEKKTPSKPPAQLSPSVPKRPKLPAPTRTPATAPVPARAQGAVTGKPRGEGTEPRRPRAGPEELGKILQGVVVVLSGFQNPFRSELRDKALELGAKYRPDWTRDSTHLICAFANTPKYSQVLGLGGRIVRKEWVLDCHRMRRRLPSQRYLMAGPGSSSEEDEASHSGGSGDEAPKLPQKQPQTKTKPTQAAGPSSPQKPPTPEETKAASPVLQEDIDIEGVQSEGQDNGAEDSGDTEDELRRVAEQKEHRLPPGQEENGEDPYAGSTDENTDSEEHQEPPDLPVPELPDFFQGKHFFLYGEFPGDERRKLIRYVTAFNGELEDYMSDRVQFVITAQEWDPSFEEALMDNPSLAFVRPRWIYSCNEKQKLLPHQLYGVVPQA
# UniProt O43542: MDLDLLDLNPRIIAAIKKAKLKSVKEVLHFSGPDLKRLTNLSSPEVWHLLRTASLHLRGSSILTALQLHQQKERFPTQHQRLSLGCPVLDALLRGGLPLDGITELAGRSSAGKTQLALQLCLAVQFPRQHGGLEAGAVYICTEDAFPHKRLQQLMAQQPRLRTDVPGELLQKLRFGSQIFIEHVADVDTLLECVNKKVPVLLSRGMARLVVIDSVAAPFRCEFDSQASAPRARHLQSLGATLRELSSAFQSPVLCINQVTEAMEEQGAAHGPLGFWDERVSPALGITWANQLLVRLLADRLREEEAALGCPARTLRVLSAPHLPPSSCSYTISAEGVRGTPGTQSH
# UniProt Q8IZH2: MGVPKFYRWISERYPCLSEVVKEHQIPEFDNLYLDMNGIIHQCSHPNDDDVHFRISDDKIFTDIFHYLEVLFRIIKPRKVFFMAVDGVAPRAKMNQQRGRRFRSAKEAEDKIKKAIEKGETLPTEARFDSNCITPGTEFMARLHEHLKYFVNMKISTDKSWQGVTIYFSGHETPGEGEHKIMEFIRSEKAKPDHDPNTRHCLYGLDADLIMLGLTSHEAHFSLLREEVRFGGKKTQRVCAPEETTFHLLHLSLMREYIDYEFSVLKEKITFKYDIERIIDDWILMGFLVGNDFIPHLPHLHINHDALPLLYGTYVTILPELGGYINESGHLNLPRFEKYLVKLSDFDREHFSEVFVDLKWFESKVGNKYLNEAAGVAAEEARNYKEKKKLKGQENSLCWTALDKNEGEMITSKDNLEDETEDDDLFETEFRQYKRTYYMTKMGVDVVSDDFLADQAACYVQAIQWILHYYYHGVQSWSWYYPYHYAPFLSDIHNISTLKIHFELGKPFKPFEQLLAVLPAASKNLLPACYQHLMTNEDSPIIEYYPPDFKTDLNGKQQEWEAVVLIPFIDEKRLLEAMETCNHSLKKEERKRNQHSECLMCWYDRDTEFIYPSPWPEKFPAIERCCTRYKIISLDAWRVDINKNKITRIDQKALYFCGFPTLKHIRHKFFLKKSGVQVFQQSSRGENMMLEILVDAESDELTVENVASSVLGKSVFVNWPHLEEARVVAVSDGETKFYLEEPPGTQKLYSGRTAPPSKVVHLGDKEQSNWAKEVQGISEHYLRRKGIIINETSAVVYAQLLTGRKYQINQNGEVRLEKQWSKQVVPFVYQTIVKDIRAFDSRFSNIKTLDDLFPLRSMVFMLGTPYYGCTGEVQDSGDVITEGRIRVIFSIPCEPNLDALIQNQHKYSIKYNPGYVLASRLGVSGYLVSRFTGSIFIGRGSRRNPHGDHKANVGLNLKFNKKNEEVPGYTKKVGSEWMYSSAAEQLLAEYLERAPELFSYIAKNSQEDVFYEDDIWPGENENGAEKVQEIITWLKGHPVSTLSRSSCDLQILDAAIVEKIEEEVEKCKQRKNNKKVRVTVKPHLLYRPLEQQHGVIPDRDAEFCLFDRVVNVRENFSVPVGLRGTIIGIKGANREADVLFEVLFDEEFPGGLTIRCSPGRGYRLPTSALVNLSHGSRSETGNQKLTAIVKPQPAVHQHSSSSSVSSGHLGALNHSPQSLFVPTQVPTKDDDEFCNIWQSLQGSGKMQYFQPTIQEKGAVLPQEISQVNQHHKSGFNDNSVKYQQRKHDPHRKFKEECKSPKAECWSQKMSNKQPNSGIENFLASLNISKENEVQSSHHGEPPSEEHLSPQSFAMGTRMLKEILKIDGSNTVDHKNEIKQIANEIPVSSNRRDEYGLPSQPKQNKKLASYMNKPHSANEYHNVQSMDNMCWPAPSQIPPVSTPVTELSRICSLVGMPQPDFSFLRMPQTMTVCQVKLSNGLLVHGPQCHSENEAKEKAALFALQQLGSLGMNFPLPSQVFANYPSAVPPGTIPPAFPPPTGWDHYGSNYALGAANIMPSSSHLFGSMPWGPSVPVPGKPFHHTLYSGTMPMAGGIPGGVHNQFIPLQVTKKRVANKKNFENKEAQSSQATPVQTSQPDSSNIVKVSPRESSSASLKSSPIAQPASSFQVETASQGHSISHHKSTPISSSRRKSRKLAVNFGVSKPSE
# Compound: CC1Cc2ccccc2N1C(=O)C1CCCN(C1)C(=O)CCl (mixture of isomers) [TRIM25 ligand 11 (diastereomer mixture)]
# Assay: probe-labelled cysteine peptide fold change vs DMSO (competition) (log2 fold change); higher = less target engagement (more negative = stronger competition)
# Conditions: THP-1, incubation time: 4 h
# 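Also: competitive chemoproteomic profiling in live THP-1 cells with an iodoacetamide desthiobiotin (IA-DTB) probe, comparing probe-labelled peptide intensities in compound-treated cells against DMSO-treated controls.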
Target,probe-labelled cysteine peptide fold change (10 µM),probe-labelled cysteine peptide fold change (50 µM)
ZC3H14_Q6PJT7_613_NGDECAYHHPISPCK (UniProt Q6PJT7),-0.0243,-0.0561
YDJC_A8MPS7_18_LVVTADDFGYCPR (UniProt A8MPS7),-0.0312,0.0877
XPO4_Q9C0E2_439_GFFTQHAVQVFNSYIQCHLAAPDGTR (UniProt Q9C0E2),-0.314,-0.144
ZC3H4_Q9UPT8_433_FYITGFCAR (UniProt Q9UPT8),-0.116,0.155
YWHAQ_P27348_25_YDDMATCMK (UniProt P27348),-0.119,-0.263
ZC3HAV1L_Q96H79_7_AEPTVCSFLTK (UniProt Q96H79),0.0178,0.147
XPNPEP1_Q9NQW7_582_ECDWLNNYHLTCR (UniProt Q9NQW7),0.107,0.0195
ZFAND1_Q8TCF1_25_DFLPFVCDDCSGIFCLEHR (UniProt Q8TCF1),0.0239,0.0278
ZC3HAV1_Q7Z2W4_174_LHICDHFTR (UniProt Q7Z2W4),0.0051,0.0954
ZBTB44_Q8NCP5_31_NDGHFCDITIR (UniProt Q8NCP5),0.21,0.297
XRN2_Q9H0D6_296_HDELADSLPCAEGEFIFLR (UniProt Q9H0D6),0.409,-0.0107
ZC3H10_Q96K80_79_NEFIFCHDFQNK (UniProt Q96K80),-0.14,-0.0316
ZCCHC3_Q9NUD5_277_HCDVLAVPVK (UniProt Q9NUD5),0.115,0.108
ZBTB33_Q86T24_32_GHGLFCDVTVIVEDRK (UniProt Q86T24),-0.00223,0.115
ZDHHC21_Q8IVQ6_109_CGHCVR (UniProt Q8IVQ6),-0.0184,0.123
ZC3H13_Q5T200_1666_LSQSSIQQELCVS (UniProt Q5T200),0.117,-0.163
XPO7_Q9UIA9_1038_QQAMHLCFENLMEGIER (UniProt Q9UIA9),0.0777,0.0769
ZC3HAV1_Q7Z2W4_518_VDDHDSEEICLDHLCK (UniProt Q7Z2W4),0.0623,-0.202
ZC3HC1_Q86WB0_5_AAPCEGQAFAVGVEK (UniProt Q86WB0),0.0638,-0.0821
YTHDC2_Q9H6S0_777_MPLQELCLHTK (UniProt Q9H6S0),-0.0952,-0.0734
ZC3H7A_Q8IWR0_775_QMPLQFDLCNHIASGK (UniProt Q8IWR0),-0.0964,-0.0915
XPO5_Q9HAV4_847_FFSTLYENCFHILGK (UniProt Q9HAV4),0.0439,0.121

Target,probe-labelled cysteine peptide fold change (10 µM),probe-labelled cysteine peptide fold change (50 µM)
ZC3H12A_Q5D1E8_374_RPSPSSQSSSLLTESEQCSLDGK (UniProt Q5D1E8),-0.0724,-0.297
YBEY_P58557_121_ENEDYNDVLTVTATHGLCHLLGFTHGTEAEWQQMFQK (UniProt P58557),0.108,0.109
ZCCHC3_Q9NUD5_372_KGIVCNLCGK (UniProt Q9NUD5),-0.0495,-0.0543
XRN2_Q9H0D6_29_ECNGVK (UniProt Q9H0D6),-0.0394,-0.0726
YARS_P54577_501_ISEECIAQWK (UniProt P54577),0.0329,-0.0947
YARS_P54577_519_LGSISCK (UniProt P54577),0.0269,0.0139
YWHAH_Q04917_97_ELETVCNDVLSLLDK (UniProt Q04917),-0.1,-0.178
ZC3HAV1L_Q96H79_108_GECQACDQLHFCR (UniProt Q96H79),0.199,0.2
ZFAND1_Q8TCF1_217_LCHITSGEALPLDHTLETWIAK (UniProt Q8TCF1),-0.0403,-0.0232
YIPF4_Q9BSR8_94_CVLMPMPSLGFNR (UniProt Q9BSR8),0.032,-0.177
XPO6_Q96QU8_886_EQLAESILHEGSTGCR (UniProt Q96QU8),0.18,0.152
ZC3H14_Q6PJT7_647+652_CTKPDCPFTHVSR (UniProt Q6PJT7),0.0281,-0.237
XRCC5_P13010_157_CDISLQFFLPFSLGKEDGSGDRGDGPFR (UniProt P13010),-0.43,-0.0205
XRCC1_P18887_20_HVVSCSSQDSTHCAENLLK (UniProt P18887),0.168,0.00437
YY1AP1_Q9H869_689_AHMNVDIACAVADGENAFQGLEPK (UniProt Q9H869),0.1,0.221
ZCCHC3_Q9NUD5_372+375_GIVCNLCGK (UniProt Q9NUD5),-0.0208,0.0519
XRCC3_O43542_193_FGSQIFIEHVADVDTLLECVNK (UniProt O43542),-0.09,-0.159
ZC3HAV1L_Q96H79_99_GECQACDQLHFCR (UniProt Q96H79),-0.0102,0.0725
ZC3H7B_Q9UGR2_909_CAHGQEELNEWLDRR (UniProt Q9UGR2),-0.164,-0.0944
XXYLT1_Q8NBI6_386_IYHGNCNTPIPED (UniProt Q8NBI6),-0.0662,0.0223
XRN1_Q8IZH2_657_ALYFCGFPTLK (UniProt Q8IZH2),0.0122,0.07
ZC3HAV1_Q7Z2W4_96_CNYSQSER (UniProt Q7Z2W4),-0.127,-0.0692

Target,probe-labelled cysteine peptide fold change (10 µM),probe-labelled cysteine peptide fold change (50 µM)
ZCCHC3_Q9NUD5_299_CEIELR (UniProt Q9NUD5),0.111,0.331
XPO5_Q9HAV4_1131_DSLDQFDCK (UniProt Q9HAV4),-0.113,-0.283
ZER1_Q7Z7L7_337_RPLQFLGLFENSLCR (UniProt Q7Z7L7),0.0847,-0.0389
ZFAND1_Q8TCF1_28_QRDFLPFVCDDCSGIFCLEHR (UniProt Q8TCF1),-0.0983,-0.028
XPO5_Q9HAV4_1157_LIAGCIGK (UniProt Q9HAV4),0.143,0.186
XRN2_Q9H0D6_296_KGKHDELADSLPCAEGEFIFLR (UniProt Q9H0D6),0.0231,0.0473
ZC3H14_Q6PJT7_652_CTKPDCPFTHVSR (UniProt Q6PJT7),-0.0758,-0.00933
ZCRB1_Q8TBF4_67_DSAQNCTR (UniProt Q8TBF4),0.00857,0.0314
ZCCHC8_Q6NZY4_607_KSEAGHASSPDSEVTSLCQK (UniProt Q6NZY4),0.0469,-0.328
XRN1_Q8IZH2_1104_PHLLYRPLEQQHGVIPDRDAEFCLFDR (UniProt Q8IZH2),-0.0497,0.131
XPNPEP1_Q9NQW7_443_ECFTYVLK (UniProt Q9NQW7),0.00776,0.112
XRN2_Q9H0D6_266_EEFKPNKPKPCGLCNQFGHEVK (UniProt Q9H0D6),-0.101,-0.175
YJU2_Q9BW85_83_CLAEITFK (UniProt Q9BW85),-0.00218,0.229
XRCC1_P18887_132_IVCSQPYSK (UniProt P18887),-0.107,0.0317
XRCC5_P13010_346_CFSVLGFCK (UniProt P13010),-0.0826,-0.0228
YWHAQ_P27348_134_YLAEVACGDDRK (UniProt P27348),-0.0228,-0.0265
XPNPEP1_Q9NQW7_582+592_ECDWLNNYHLTCR (UniProt Q9NQW7),0.00244,-0.126
YBEY_P58557_41_FDLGIICVDNK (UniProt P58557),-0.23,-0.0948
ZC3H7A_Q8IWR0_921_YMNGTCPEGNSCK (UniProt Q8IWR0),-0.109,-0.137
ZC3HAV1_Q7Z2W4_272_SCTPSPDQISHR (UniProt Q7Z2W4),0.00382,-0.164
ZFAND1_Q8TCF1_64_LKTDQHTSYPCSFK (UniProt Q8TCF1),-0.0624,-0.388
ZBTB11_O95625_737_YLCSVCGK (UniProt O95625),-0.0498,0.228

Target,probe-labelled cysteine peptide fold change (10 µM),probe-labelled cysteine peptide fold change (50 µM)
ZC3HAV1_Q7Z2W4_513_VDDHDSEEICLDHLCK (UniProt Q7Z2W4),0.00414,-0.227
ZC3H7A_Q8IWR0_775_QMPLQFDLCNHIASGKK (UniProt Q8IWR0),-0.187,-0.181
ZFAND1_Q8TCF1_10_AELDIGQHCQVEHCR (UniProt Q8TCF1),-0.0243,0.207
ZEB2_O60315_583_MIENHNISTPFSCQFCK (UniProt O60315),-0.183,-0.268
ZBTB11_O95625_943_DYVPCK (UniProt O95625),0.0102,0.0157
ZC3HAV1L_Q96H79_125_DCWSTCTLSHDIHTPVNMQVLK (UniProt Q96H79),-0.175,-0.126
XPO1_O14980_1070_QMSVPGIFNPHEIPEEMCD (UniProt O14980),-0.174,-0.397
XRCC3_O43542_86_LSLGCPVLDALLR (UniProt O43542),0.151,-0.112
XRCC5_P13010_418_HNYECLVYVQLPFMEDLR (UniProt P13010),0.0597,0.0809
ZBTB34_Q8NCN2_32_LCDIIVHIQGQPFR (UniProt Q8NCN2),0.0544,0.302
YWHAZ_P63104_94_DICNDVLSLLEK (UniProt P63104),0.126,0.114
ZFAND1_Q8TCF1_79_ELVAVICPYCEK (UniProt Q8TCF1),-0.0161,0.168
ZC3HC1_Q86WB0_102_WAGKPFELSPLVCAK (UniProt Q86WB0),0.0693,-0.0601
XRN1_Q8IZH2_132_FDSNCITPGTEFMAR (UniProt Q8IZH2),0.108,0.199
YWHAQ_P27348_25_LAEQAERYDDMATCMK (UniProt P27348),-0.53,-0.458
ZFAND1_Q8TCF1_33_DFLPFVCDDCSGIFCLEHR (UniProt Q8TCF1),-0.0351,0.198
XPO7_Q9UIA9_767_AIELWYHDPACTTPVLK (UniProt Q9UIA9),0.0335,0.142
ZBED4_O75132_582_VVCLHCGR (UniProt O75132),-0.126,-0.0917
YWHAH_Q04917_112_NCNDFQYESK (UniProt Q04917),-0.0341,0.1
ZFAND1_Q8TCF1_184_SKPMFFCHR (UniProt Q8TCF1),-0.134,-0.174

# Taken from the entries so far for reference:
Target,probe-labelled cysteine peptide fold change (10 µM),probe-labelled cysteine peptide fold change (50 µM)
ZC3HAV1_Q7Z2W4_513_VDDHDSEEICLDHLCK (UniProt Q7Z2W4),0.00414,-0.227
ZC3H7A_Q8IWR0_775_QMPLQFDLCNHIASGKK (UniProt Q8IWR0),-0.187,-0.181
ZFAND1_Q8TCF1_10_AELDIGQHCQVEHCR (UniProt Q8TCF1),-0.0243,0.207
